The source of these data is doi:10.1101/2024.04.30.591959.

These are yes or no findings as the source states them, for the method shown.

For the test, the target named is human propionyl-CoA carboxylase α subunit (human (endogenous in Expi 293F)) (UniProt P05165). Kind of test: cryo-EM structure.

B1: human propionyl-CoA carboxylase α subunit (protein, UniProt P05165 53-728)
chain: SVGYDPNEKTFDKILVANRGEIACRVIRTCKKMGIKTVAIHSDVDASSVHVKMADEAVCVGPAPTSKSYLNMDAIMEAIKKTRAQAVHPGYGFLSENKEFARCLAAEDVVFIGPDTHAIQAMGDKIESKLLAKKAEVNTIPGFDGVVKDAEEAVRIAREIGYPVMIKASAGGGGKGMRIAWDDEETRDGFRLSSQEAASSFGDDRLLIEKFIDNPRHIEIQVLGDKHGNALWLNERECSIQRRNQKVVEEAPSIFLDAETRRAMGEQAVALARAVKYSSAGTVEFLVDSKKNFYFLEMNTRLQVEHPVTECITGLDLVQEMIRVAKGYPLRHKQADIRINGWAVECRVYAEDPYKSFGLPSIGRLSQYQEPLHLPGVRVDSGIQPGSDISIYYDPMISKLITYGSDRTEALKRMADALDNYVIRGVTHNIALLREVIINSRFVKGDISTKFLSDVYPDGFKGHMLTKSEKNQLLAIASSLFVAFQLRAQHFQENSRMPVIKPDIANWELSVKLHDKVHTVVASNNGSVFSVEVDGSKLNVTSTWNLASPLLSVSVDGTQRTVQCLSREAGGNMSIQFLGTVYKVNILTRLAAELNKFMLEKVTEDTSSVLRSPMPGVVVAVSVKPGDAVAEGQEICVIEAMKMQNSMTAGKTGTVKSVHCQAGDTVGEGDLLVELE
modifications: biotin covalently linked to K694 (AMKM motif of the BCCP domain)
Consider B1, for which the binding entry is “no binding”.
